{"source": "PubChem BioAssay AID493014", "about": "(National Center for Advancing Translational Sciences (NCATS), 2011)", "note": "The whole screen tested about 340,000 compounds, of which about 170 (0.05%) were called active. Inconclusive results, whose numbers are uncertain, are shown with a selection of clear calls. The call rests on the fitted dose curve; in most records, active means well fitted inhibition curve with a large enough effect in the signal ratio, with a control signal flat (not every such curve was filed as active); inconclusive means small, poorly fitted or top-dose-only effect, or effect the other way, or a change in a side signal; inactive means flat fitted curve, though single readings scatter; the % refers to the signal ratio. Where the call is inconclusive, the potency comes from a doubtful curve fit. Potency means the concentration at half of the fitted maximal effect.", "data": [{"experiment": "qHTS Assay to Find Inhibitors of Chronic Active B-Cell Receptor Signaling;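 on activity change, negative = inhibition: plate controls were basal doxycycline-induced cells for no effect and cells given 10 µM MG132 for full effect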", "conditions": "ABC-DLBCL IkBa-CBG/CBR reporter, luminescence ratio (green luciferase fused to IkBa over red control in TMD8 lymphoma cells), 4 h; activity change, negative = inhibition: at 46.1 µM (top of the series)", "outline": "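Cell line TMD8 (human ABC DLBCL), stably expressing tet-inducible CBG68-IkBa fusion and CBR; IMDM/0.5% FBS; cpd up to 46 uM; dox induction, 4 h, 37C/5% CO2; dual luminescence; green/red ratio; MG132 control.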", "values": [{"smiles": "C[C@H](CO)N1C[C@H](C)[C@@H](CN(C)C(=O)Nc2ccc(C(F)(F)F)cc2)Oc2c(NC(=O)Nc3ccc(C(F)(F)F)cc3)cccc2C1=O", "activity change, negative = inhibition": "inconclusive: -1.33%"}, {"smiles": "COc1cccc(NC(=O)CN(c2ccc([N+](=O)[O-])cc2)S(=O)(=O)c2ccccc2)c1", "activity change, negative = inhibition": "inconclusive: -1.68%"}, {"smiles": "CC(C)(C)C(=O)NNC(=O)c1cc(C(C)(C)C)nn1Cc1ccccc1", "activity change, negative = inhibition": "inconclusive: 4.66%"}, {"smiles": "CCOC(=O)c1sc(NC(=O)c2ccc3nc[nH]c3c2)nc1C", "Potency": "inconclusive: 2.82 µM [falling, partial curve, poor fit]"}, {"smiles": "COCCCNC(=O)CC1C[C@H](C(=O)N2CCCCC2)[C@@]2(CCc3ccccc3)c3[nH]c4ccc(OC)cc4c3CCN2C1=O", "note": "(stereo partly drawn)", "activity change, negative = inhibition": "inconclusive: 1.4%"}, {"smiles": "O=C(Nc1nc2ccccc2n1Cc1ccccc1)c1ccco1", "activity change, negative = inhibition": "inactive: 3.4%"}, {"smiles": "COC(=O)c1cc(Cl)c(NC(=O)C(C)C)cc1OC", "activity change, negative = inhibition": "inactive: 7.84%"}, {"smiles": "COC(=O)CCC[C@H]1CC2(C[C@H](CCCO[Si](C)(C)C(C)(C)C)N1C(=O)OC(C)(C)C)OCCO2", "activity change, negative = inhibition": "inactive: -12.7%"}, {"smiles": "CC1CCN(c2nnc(N)s2)CC1", "activity change, negative = inhibition": "inconclusive: 6.64%"}, {"smiles": "O=C(Nc1ccccc1Cl)C1CCCN1C(=O)OCc1ccccc1", "note": "(stereo not drawn)", "activity change, negative = inhibition": "inactive: 7.66%"}, {"smiles": "O=C(NN1C(=O)NC2(CCCCC2)C1=O)c1ccc(-c2ccc([N+](=O)[O-])cc2)o1", "activity change, negative = inhibition": "inactive: 11.8%"}, {"smiles": "CCCC(C(=O)O)n1c(O)c(C=C2N=c3ccccc3=N2)sc1=S", "note": "(stereo not drawn)", "Potency": "inconclusive: 1.12 µM [falling, partial curve, poor fit]"}, {"smiles": "CN(C)S(=O)(=O)c1ccc(C(=O)N2CCC(c3nc4ccccc4o3)CC2)cc1", "activity change, negative = inhibition": "inactive: -1.35%"}, {"smiles": "O=c1[nH]c2ccccc2n1CCCSCCCn1c(=O)[nH]c2ccccc21", "Potency": "inconclusive: 11.2 µM [falling, partial curve]"}, {"smiles": "CC(=O)c1cccc(Nc2ccc(-c3ccccc3F)nn2)c1", "activity change, negative = inhibition": "inconclusive: -18.6%"}, {"smiles": "C=C(C)C(=O)Nc1nnc(-c2cccs2)s1", "Potency": "inconclusive: 29.1 µM [falling, single point]"}, {"smiles": "O=C(CSC1=NCCN1)Nc1cccc([N+](=O)[O-])c1", "Potency": "inconclusive: 20 µM [falling, partial curve]"}, {"smiles": "O=C(NCC1CCCO1)c1ccccc1-c1nc(-c2ccc(Cl)cc2)no1", "note": "(stereo not drawn)", "activity change, negative = inhibition": "inconclusive: 8.13%"}, {"smiles": "CCCCn1nnc(NC(=S)NC(=O)c2cccs2)n1", "Potency": "inconclusive: 29.1 µM [cytotoxic, single point]"}, {"smiles": "Cc1cc(OCC(=O)O/N=C(\\N)c2ccccc2)ccc1Br", "activity change, negative = inhibition": "inconclusive: -14.6%"}, {"smiles": "Oc1ccc(NC(=S)N=Nc2c(O)[nH]c3ccc(Br)cc23)cc1", "activity change, negative = inhibition": "inconclusive: 13.7%"}, {"smiles": "CCOC(=O)N1CCN(c2c(NCc3ccc(Cl)cc3)c(=O)c2=O)CC1", "Potency": "inconclusive: 18.4 µM [falling, single point]"}, {"smiles": "O=P(c1ccccc1)(c1ccccc1)C(c1ccccn1)P(=O)(c1ccccc1)c1ccccc1", "activity change, negative = inhibition": "inconclusive: -1.6%"}, {"smiles": "O=c1[nH]c(C(Cl)Cl)nc2sc3c(c12)CCN(Cc1ccccc1)C3", "activity change, negative = inhibition": "inconclusive: 2.17%"}, {"smiles": "Cc1ccc2c(c1)c1c(n2CC(O)CNC2CCCC2)CCCC1", "note": "(stereo not drawn)", "activity change, negative = inhibition": "inactive: -1.35%"}, {"smiles": "CCc1ccccc1Oc1ccc(S(=O)(=O)N2CCN(C)CC2)cn1", "activity change, negative = inhibition": "inactive: -5.81%"}, {"smiles": "O=c1oc2ccccc2c(NC2CCCCC2)c1NS(=O)(=O)c1ccc(Cl)cc1", "activity change, negative = inhibition": "inconclusive: -12.4%"}, {"smiles": "O=C(/C=C/c1ccccc1)Nc1ccc(Cl)cn1", "Potency": "inconclusive: 11.2 µM [falling, partial curve]"}, {"smiles": "O=C(O)CC(NC(=O)c1ccccc1NC(=O)c1ccccc1)C(=O)O", "note": "(stereo not drawn)", "Potency": "inconclusive: 14.6 µM [falling, partial curve]"}, {"smiles": "O=C(COc1ccc(/C=N/NC(=O)c2cc3ccccc3o2)cc1Br)Nc1ccccc1", "Potency": "inconclusive: 0.355 µM [rising, full curve, poor fit]"}, {"smiles": "NS(=O)(=O)c1ccc(N2N=C(c3ccccc3)CC2c2cccc(Br)c2)cc1", "note": "(stereo not drawn)", "activity change, negative = inhibition": "inactive: 1.14%"}, {"smiles": "COc1ccc(Cc2nn3c(-c4cc(OC)c(OC)c(OC)c4)nnc3s2)cc1", "Potency": "inconclusive: 23.1 µM [falling, single point]"}, {"smiles": "O=C(CN1CCN(C(=O)c2c(F)cccc2F)CC1)Nc1ccccc1F", "activity change, negative = inhibition": "inconclusive: 4.68%"}, {"smiles": "C/C(N)=C(/C#N)C(=O)CSc1nnc(-c2ccccc2)n1C", "activity change, negative = inhibition": "inconclusive: 14.1%"}, {"smiles": "O=C(COC(=O)c1cccnc1Cl)NCCC1=CCCCC1", "activity change, negative = inhibition": "inactive: 2.98%"}, {"smiles": "O=C1NC(=O)/C(=C/C(=O)N2CCOCC2)S1", "Potency": "inconclusive: 20 µM [falling, partial curve]"}, {"smiles": "CCN(CC)c1ccc(C(=O)NNC(=O)CCNC(=O)c2ccccc2)cc1", "activity change, negative = inhibition": "inactive: -0.825%"}, {"smiles": "O=C(Cn1cc(C(=O)COc2ccccc2)c2ccccc21)NCc1ccco1", "activity change, negative = inhibition": "inconclusive: -1.92%"}, {"smiles": "Cc1ccc(C2CC(=O)C=C(Nc3ccc(Cl)cc3)C2)cc1", "note": "(stereo not drawn)", "activity change, negative = inhibition": "inconclusive: 5.57%"}, {"smiles": "O=C(CCNC(=O)c1ccc([N+](=O)[O-])cc1)Nc1cccc(S(=O)(=O)N2CCCCC2)c1", "activity change, negative = inhibition": "inconclusive: -16.6%"}, {"smiles": "O=C(NCc1ccncc1)C(F)(F)C(F)(F)C(=O)NCc1ccncc1", "activity change, negative = inhibition": "inconclusive: 2.6%"}, {"smiles": "Cc1ccccc1C(=O)NC(=S)NC1CCSC1=O", "note": "(stereo not drawn)", "Potency": "inconclusive: 20.6 µM [falling, partial curve, poor fit]"}, {"smiles": "COc1ccc(/C=C/C(=O)NCCc2ccc(OC)c(OC)c2)cc1", "activity change, negative = inhibition": "inactive: -3.29%"}, {"smiles": "CC(C)=CCCC(C)CN1CCC(n2nccc2NC(=O)C2CCCC2)CC1", "note": "(stereo not drawn)", "activity change, negative = inhibition": "inconclusive: 1.07%"}, {"smiles": "COc1ccccc1NC(=O)Cn1ccn(-c2cccc3ccccc23)c(=O)c1=O", "Potency": "inconclusive: 2.59 µM [falling, full curve]"}, {"smiles": "COc1ccc(-c2nn(-c3ccccc3)cc2/C=N/N=C(N)N)cc1OC", "activity change, negative = inhibition": "inconclusive: -14.2%"}, {"smiles": "COc1ccccc1NC(=O)c1csc2c1CCC(C)C2", "note": "(stereo not drawn)", "Potency": "inconclusive: 2 µM [rising, partial curve]"}, {"smiles": "Oc1c(Br)cc(Br)cc1CNc1ccccn1", "Potency": "inconclusive: 12.6 µM [falling, partial curve]"}, {"smiles": "Cc1ccc(C(=O)N/N=C\\c2c(C)nn(-c3ccccc3)c2Cl)cn1", "activity change, negative = inhibition": "inconclusive: -7.79%"}, {"smiles": "Oc1ccc(Nc2ncnc3ccccc23)cc1", "Potency": "inconclusive: 12.6 µM [falling, partial curve, poor fit]"}, {"smiles": "COc1ccc(C(CCNCc2ccc(OC(C)C)cc2)c2ccccc2OC)cc1", "note": "(stereo not drawn)", "Potency": "inconclusive: 15.8 µM [falling, partial curve, poor fit]"}, {"smiles": "CCOC(=O)c1c(C)[nH]c(C)c1S(=O)(=O)N(C)CC(=O)NCc1ccc(Cl)cc1", "activity change, negative = inhibition": "inconclusive: 7.47%"}, {"smiles": "CCN(CCCNC(=O)CC(C(=O)N1CCc2ccccc21)n1ccnc1)c1ccccc1", "note": "(stereo not drawn)", "activity change, negative = inhibition": "inconclusive: 1.63%"}, {"smiles": "COc1ccc(-n2cnc3cc(C(=O)NC4CCCCCC4)ccc32)cc1", "activity change, negative = inhibition": "inactive: -1.43%"}, {"smiles": "O=C(O)c1ccc2nc(-c3cc4cc(Cl)ccc4oc3=O)[nH]c2c1", "activity change, negative = inhibition": "inconclusive: 345%"}, {"smiles": "Cc1ccc(-c2nc3c4ccccc4n(CC(=O)NCc4ccc(F)cc4)c(=O)n3n2)cc1", "activity change, negative = inhibition": "inactive: 2.51%"}, {"smiles": "CCN1CCN(Cc2ccc(NC(=O)c3cc(NC(=O)c4ccno4)cc(OC)c3)cc2C(F)(F)F)CC1", "activity change, negative = inhibition": "inactive: -2.53%"}, {"smiles": "COc1ccc(/C=C/c2ccncc2)cc1OC", "Potency": "inconclusive: 16.4 µM [falling, single point]"}, {"smiles": "CC(OC(=O)Cn1ccccc1=O)C(=O)Nc1cc(Cl)cc(Cl)c1", "note": "(stereo not drawn)", "activity change, negative = inhibition": "inconclusive: 11.7%"}, {"smiles": "COc1ccccc1/C=C/C(=O)OCC(=O)c1cc(C)n(C)c1C", "Potency": "inconclusive: 3.26 µM [falling, partial curve]"}, {"smiles": "COCCNC(=O)CSc1nc(-c2ccccc2)cs1", "activity change, negative = inhibition": "inconclusive: 8.14%"}, {"smiles": "O=C(CN1CCC(NC(=O)c2ccco2)CC1)Nc1ccccc1[N+](=O)[O-]", "activity change, negative = inhibition": "inactive: -23.3%"}, {"smiles": "Cc1ccc2c(c1)C1(C(=O)N2)N2CCCC2C(C(=O)c2ccc3ccccc3c2)C12C(=O)Nc1ccccc12", "note": "(stereo not drawn)", "activity change, negative = inhibition": "inconclusive: 25.3%"}, {"smiles": "COc1ccc(S(=O)(=O)N2CCc3ccccc3C2)cc1", "activity change, negative = inhibition": "inconclusive: 1.25%"}, {"smiles": "CCOc1ccc(NC(=O)c2nn(C)cc2Br)cc1", "activity change, negative = inhibition": "inconclusive: -19.7%"}, {"smiles": "Cc1nn(-c2ccccc2)c(C)c1/C=C/C(=O)OCC(=O)Nc1ncc(C(F)(F)F)cc1Cl", "activity change, negative = inhibition": "inconclusive: 4.91%"}, {"smiles": "Cn1c(=O)c2c(nc(NCc3ccccc3)n2Cc2ccc(F)cc2)n(C)c1=O", "activity change, negative = inhibition": "inconclusive: 17.2%"}, {"smiles": "CC(=O)Nc1cccc(-c2cc(C)c3cc4c(cc3n2)OCO4)c1", "activity change, negative = inhibition": "inconclusive: -2.02%"}, {"smiles": "COc1cccc(/C=C2\\SC(=S)N(CCCC(=O)N3CCCC3)C2=O)c1", "Potency": "inconclusive: 11.2 µM [falling, partial curve]"}, {"smiles": "CCCNS(=O)(=O)c1cc(CN2C(=O)c3cccnc3C2=O)ccc1OC", "activity change, negative = inhibition": "inconclusive: -1.6%"}, {"smiles": "COc1cc(C2OCC3C(c4ccc(OC5OC(CO)C(O)C(O)C5O)c(OC)c4)OCC23)ccc1O", "note": "(stereo not drawn)", "activity change, negative = inhibition": "inactive: -9.98%"}, {"smiles": "CCN1C(=NCC(C)C)N[C@@H](c2cccc(C(F)(F)F)c2)C(C(=O)OC)=C1C", "Potency": "inconclusive: 5.01 µM [falling, partial curve, poor fit]"}, {"smiles": "CN(CCCC(=O)O)S(=O)(=O)c1ccc2c(c1)C(=O)c1cc(S(=O)(=O)N(C)CCCC(=O)O)ccc1-2", "activity change, negative = inhibition": "inactive: 7.77%"}, {"smiles": "CCC1(CC)NC(=O)N(CC(=O)OCC(=O)Nc2sccc2C#N)C1=O", "activity change, negative = inhibition": "inconclusive: 0.806%"}, {"smiles": "CC(c1nnc(SCC(=O)N2CC(=O)Nc3ccccc32)n1Cc1ccccc1)N(C)C", "note": "(stereo not drawn)", "activity change, negative = inhibition": "inconclusive: -9.06%"}, {"smiles": "O=C(NNC(=S)Nc1cccc(C(F)(F)F)c1)c1ccc(Cl)cc1Cl", "activity change, negative = inhibition": "inconclusive: -9.3%"}, {"smiles": "COc1cc(/C=N/NC(=S)NCCN2CCOCC2)cc(OC)c1OC", "activity change, negative = inhibition": "inconclusive: -8.39%"}, {"smiles": "O=C(NC1CCCC1)C1=COCCO1", "activity change, negative = inhibition": "inconclusive: 12.5%"}]}]}
